In test [1] the target is T1, Histidine-tagged SCHAD (UniProt Q16836).
T1 sequence: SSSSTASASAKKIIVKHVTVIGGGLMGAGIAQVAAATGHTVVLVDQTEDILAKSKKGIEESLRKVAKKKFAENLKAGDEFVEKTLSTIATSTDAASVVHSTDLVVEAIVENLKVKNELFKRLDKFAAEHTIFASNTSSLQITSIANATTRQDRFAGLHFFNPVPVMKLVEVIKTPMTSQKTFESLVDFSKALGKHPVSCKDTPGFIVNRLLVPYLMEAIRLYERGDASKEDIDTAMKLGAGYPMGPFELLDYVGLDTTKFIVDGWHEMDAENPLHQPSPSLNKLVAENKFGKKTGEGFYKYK
Briefly: condition: only liver and brain of SCHAD knockout mice; affinity purification with mass spectrometry; as a2, homogenates of tissues from SCHAD knockout mice only (liver, brain, skeletal muscle as named for each row); only the target purified.

Amino acid sequences for entries named in this document (tags omitted). Residues count along the entry.
UniProt Q8BMS1, residues 37-763: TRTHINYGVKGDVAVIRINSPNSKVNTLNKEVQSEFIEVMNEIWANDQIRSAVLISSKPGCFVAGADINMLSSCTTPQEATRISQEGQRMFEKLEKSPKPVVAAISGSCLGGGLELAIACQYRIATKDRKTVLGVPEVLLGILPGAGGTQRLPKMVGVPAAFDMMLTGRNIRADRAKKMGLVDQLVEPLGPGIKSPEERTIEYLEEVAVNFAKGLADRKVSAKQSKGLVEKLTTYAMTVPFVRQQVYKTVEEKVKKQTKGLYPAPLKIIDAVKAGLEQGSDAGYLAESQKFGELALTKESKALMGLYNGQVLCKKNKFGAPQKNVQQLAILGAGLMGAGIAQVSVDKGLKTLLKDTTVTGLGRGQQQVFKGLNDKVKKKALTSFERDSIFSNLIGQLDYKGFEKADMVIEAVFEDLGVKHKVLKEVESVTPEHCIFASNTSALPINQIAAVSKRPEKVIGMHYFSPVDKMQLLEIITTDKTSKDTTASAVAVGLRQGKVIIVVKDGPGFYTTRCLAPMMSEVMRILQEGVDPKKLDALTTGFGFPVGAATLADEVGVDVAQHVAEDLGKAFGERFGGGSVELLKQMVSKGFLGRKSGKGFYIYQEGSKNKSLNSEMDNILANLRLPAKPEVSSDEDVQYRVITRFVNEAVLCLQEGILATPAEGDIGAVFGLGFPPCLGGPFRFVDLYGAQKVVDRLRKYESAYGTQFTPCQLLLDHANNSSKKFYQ

Test [2] has as its target T1, Histidine-tagged SCHAD. Briefly: affinity purification with mass spectrometry; His-tagged SCHAD linked to agarose beads (AminoLink Plus, cyanoborohydride); homogenates of mouse liver, muscle, heart, kidney and brain (wild type and SCHAD knockout) in 50 mM Tris-HCl, 0.1% Triton-X 100, 1 mg/mL, 4°C overnight; eluted proteins identified by LC-MS/MS, BSA beads as control; only the target purified.

The target of test [3] is T1, Histidine-tagged SCHAD. Put plainly: affinity purification with mass spectrometry; as a2, homogenates of tissues from SCHAD knockout mice only (liver, brain, skeletal muscle as named for each row); only the target purified.
Test [4] has as its target T1, Histidine-tagged SCHAD. Put plainly: condition: only skeletal muscle of SCHAD knockout mice; affinity purification with mass spectrometry; as a2, homogenates of tissues from SCHAD knockout mice only (liver, brain, skeletal muscle as named for each row); only the target purified.

No constants are given. Whether binding was seen depends on the method and setting. In cells and extracts the contact can be indirect. Here binding means that the protein was enriched with, or labelled near, the bait; the list need not be complete. For part of these data: A no says only that the protein was not detected with the bait. Tags and fused reporters may be left off the sequences shown.

On to “trifunctional enzyme alpha (from UniProt Q8BMS1 37-763)”, for which the binding result with Histidine-tagged SCHAD [1] is “no binding”; in the test with Histidine-tagged SCHAD [2] it was “binds”.

B1: short-chain acyl-coA dehydrogenase (protein, UniProt Q07417 25-412)
chain: LHTVYQSVELPETHQMLRQTCRDFAEKELVPIAAQLDREHLFPTAQVKKMGELGLLAMDVPEELSGAGLDYLAYSIALEEISRACASTGVIMSVNNSLYLGPILKFGSAQQKQQWITPFTNGDKIGCFALSEPGNGSDAGAASTTAREEGDSWVLNGTKAWITNSWEASATVVFASTDRSRQNKGISAFLVPMPTPGLTLGKKEDKLGIRASSTANLIFEDCRIPKENLLGEPGMGFKIAMQTLDMGRIGIASQALGIAQASLDCAVKYAENRNAFGAPLTKLQNIQFKLADMALALESARLLTWRAAMLKDNKKPFTKESAMAKLAASEAATAISHQAIQILGGMGYVTEMPAERYYRDARITEIYEGTSEIQRLVIAGHLLRSYRS
Take B1: the binding entry with Histidine-tagged SCHAD [3] is reported as “no binding (only liver of SCHAD knockout mice)”; with Histidine-tagged SCHAD [2] it was “binds”.

B2: arginase-2 (protein, UniProt O08691 23-354)
chain: VHSVAIVGAPFSRGQKKLGVEYGPAAIREAGLLKRLSRLGCHLKDFGDLSFTNVPQDDPYNNLVVYPRSVGLANQELAEVVSRAVSGGYSCVTMGGDHSLAIGTIIGHARHRPDLCVIWVDAHADINTPLTTVSGNIHGQPLSFLIKELQDKVPQLPGFSWIKPCLSPPNIVYIGLRDVEPPEHFILKNYDIQYFSMREIDRLGIQKVMEQTFDRLIGKRQRPIHLSFDIDAFDPKLAPATGTPVVGGLTYREGVYITEEIHNTGLLSALDLVEVNPHLATSEEEAKATARLAVDVIASSFGQTREGGHIVYDHLPTPSSPHESENEECVRI
In the case of B2, the binding result in the test with Histidine-tagged SCHAD [2] is reported as “binds”.

B3: medium chain acylCoA dehydrogenase (protein, UniProt P45952 26-421)
chain: KAAHKQEPGLGFSFELTEQQKEFQATARKFAREEIIPVAPEYDKSGEYPFPLIKRAWELGLINAHIPESCGGLGLGTFDACLITEELAYGCTGVQTAIEANSLGQMPVILAGNDQQKKKYLGRMTEQPMMCAYCVTEPSAGSDVAAIKTKAEKKGDEYVINGQKMWITNGGKANWYFLLARSNPDPKVPASKAFTGFIVEADTPGIHIGKKELNMGQRCSDTRGIAFEDVRVPKENVLIGEGAGFKIAMGAFDRTRPTVAAGAVGLAQRALDEATKYALDRKTFGKLLVEHQGVSFLLAEMAMKVELARLSYQRAAWEVDSGRRNTYYASIAKAFAGDIANQLATDAVQIFGGYGFNTEYPVEKLMRDAKIYQIYEGTAQIQRLIIAREHIEKYKN
With B3, the values for the binding entry in the test with Histidine-tagged SCHAD [4] and with Histidine-tagged SCHAD [2] were “no binding” and “binds”, respectively.

B4: ETF ubiquinone oxidoreductase (mouse) (protein, UniProt Q921G7 33-616)
chain: SSTSAVPQITTHYTVHPREKDKRWEGVNMERFAEEADVVIVGAGPAGLSAAIRLKQLAAEQGKDIRVCLVEKAAQIGAHTLSGACLDPAAFKELFPDWKEKGAPLNTPVTEDRFAILTEKHRIPVPILPGLPMNNHGNYIVRLGHLVSWMGEQAEALGVEVYPGYAAAEVLYHEDGSVKGIATNDVGIQKDGAPKTTFERGLELHAKVTVFAEGCHGHLAKQLYKKFDLRASCDAQTYGIGLKELWIIDEKKWKPGRVDHTVGWPLDRHTYGGSFLYHLNEGEPLVAVGFVVGLDYQNPYLSPFREFQRWKHHPSIQPTLEGGKRIAYGARALNEGGLQSIPKLTFPGGLLIGCSPGFMNVPKIKGTHTAMKSGSLAAESIFKQLTSENLQSKTTGLHVTEYEDNLKQSWVWKELHAVRNIRPSCHGILGVYGGMIYTGIFYWILRGMEPWTLKHKGSDSDQLKPAKDCTPIEYPKPDGQISFDLLSSVALSGTNHEHDQPAHLTLKDDSIPVNRNLSIYDGPEQRFCPAGVYEFVPLEQGDGFRLQINAQNCVHCKTCDIKDPSQNINWVVPEGGGGPAYNGM
On to B4, for which, in the test with Histidine-tagged SCHAD [2], the binding entry is on record as “binds”.

B5: trifunctional enzyme beta (protein, UniProt Q99JY0 35-475)
chain: SAPAVQTKSKKTLAKPNMKNIVVVEGVRIPFLLSGTSYKDLMPHDLARAALSGLLHRTNIPKDVVDYIIFGTVIQEVKTSNVAREAALGAGFSDKTPAHTVTMACISSNQAMTTAVGLIASGQCDVVVAGGVELMSDVPIRHSRNMRKMMLDLNKAKTLGQRLSLLSKFRLNFLSPELPAVAEFSTNETMGHSADRLAAAFAVSRMEQDEYALRSHSLAKKAQDEGHLSDIVPFKVPGKDTVTKDNGIRPSSLEQMAKLKPAFIKPYGTVTAANSSFLTDGASAMLIMSEDRALAMGYKPKAYLRDFIYVSQDPKDQLLLGPTYATPKVLEKAGLTMNDIDAFEFHEAFSGQILANFKAMDSDWFAQNYMGRKTKVGSPPLEKFNIWGGSLSLGHPFGATGCRLVMAAANRLRKDGGQYALVAACAAGGQGHAMIVEAYPK
With B5, the binding entry with Histidine-tagged SCHAD [1] is listed as “no binding”; in the test with Histidine-tagged SCHAD [2], “binds”.

B6: very long chain acyl-CoA dehydrogenase (protein, UniProt P50544 42-656)
chain: AREATQAVLDKPETLSSDASTREKPARAESKSFAVGMFKGQLTIDQVFPYPSVLSEEQAQFLKELVGPVARFFEEVNDPAKNDALEKVEDDTLQGLKELGAFGLQVPSELGGLGLSNTQYARLAEIVGMHDLGVSVTLGAHQSIGFKGILLYGTKAQREKYLPRVASGQALAAFCLTEPSSGSDVASIRSSAIPSPCGKYYTLNGSKIWISNGGLADIFTVFAKTPIKDAATGAVKEKITAFVVERSFGGVTHGLPEKKMGIKASNTSEVYFDGVKVPSENVLGEVGDGFKVAVNILNNGRFGMAATLAGTMKSLIAKAVDHATNRTQFGDKIHNFGVIQEKLARMAILQYVTESMAYMLSANMDQGFKDFQIEAAISKIFCSEAAWKVADECIQIMGGMGFMKEPGVERVLRDIRIFRIFEGANDILRLFVALQGCMDKGKELTGLGNALKNPFGNVGLLMGEAGKQLRRRTGIGSGLSLSGIVHPELSRSGELAVQALDQFATVVEAKLVKHKKGIVNEQFLLQRLADGAIDLYAMVVVLSRASRSLSEGYPTAQHEKMLCDSWCIEAATRIRENMASLQSSPQHQELFRNFRSISKAMVENGGLVTGNPLGI
B6: the binding result is “no binding” in the test with Histidine-tagged SCHAD [1] and “binds” with Histidine-tagged SCHAD [2].

The values above are taken from publication PMC3322157.
